Measurements published in PubChem BioAssay AID1347423 (Functional Genomics Laboratory (NCATS/FGL), 2020).
Hit rate of the full screen: of about 52,000 sequences, about 210 (0.4%) were called active.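 Rule for the calls: active = gene whose silencing raises cell survival under the drug, median off-target-corrected z-score across its silencing RNAs 2 or more; inactive = the rest.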 Some of the results follow.

Assay: Resistance to Poly (ADP-Ribose) Polymerase inhibitor: Gene Identification via Genome-wide siRNA Screen
Details: mouse BRCA2 R2336H ES cells, olaparib, CellTiter-Glo viability; stronger effect = higher value
How it was run: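 Mouse BRCA2 R2336H ES cells were reverse-transfected with siRNA (20 nM final), treated at 48 h with 500 nM olaparib, and read by CellTiter-Glo after 72 h. Scores: MAD-based z per siRNA, median per gene, seed off-target correction.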

Sequence | z-score
GGAGGUCCCUCAUUUCAAGTT against Grik4 | inactive: 2.86
GUGAAGAAAUGUUUGACACTT against Raet1b | inactive: 0.236
GCCUUCAAGACCACAUCCATT against Chst5 | inactive: 0.739
GGUCGAUGCAAAGAUGCUGTT against Smoc1 | inactive: 0.505
CGAUAUCAAGAGUGCAUGATT against Gas6 | inactive: 0.513
GCACAUAGAAACGUGUUGGTT against Fnbp1 | inactive: 0.895
GGUGGAUAUUCCAUCUAUUTT against Snx14 | inactive: 0.189
GGGAGUCUCUUUGACAAUGTT against Dscr3 | inactive: 0.323
GGAAAGUACACAAAUGAACTT against Chi3l4 | inactive: 0.038
CCUGUGCCUCGCGUCUUAATT against Gdf3 | inactive: -2.17
GCAAUGGAAAAAUCCAGUUTT against Ecg2 | inactive: -1.81
GGUCAAAAUAGUGUCCACCTT against Olfr628 | inactive: 0.199
GGCUCUGCACAACCUUCUATT against 4932435O22Rik | inactive: 1.34
GGCCUGUUGAUUGCAUAUUTT against 2010106G01Rik | inactive: -2.04
GGUUGUAACAAACAUACUCTT against Sstr4 | inactive: 1.4
GGUCAUCUUACAGUUUAAATT against 1810031K02Rik | inactive: 0.294
GGCCAUCAGGUGCAAACUATT against Enc1 | inactive: 0.471
GGAGAUGGUUAACCUCAGATT against D4Bwg0951e | inactive: -0.341
CGUCUAUUCGUAAUGAUUUTT against 4930511M11Rik | inactive: -1.46
GCCAGGGUAACUCUCUAGATT against 9130008F23Rik | inactive: -1.27
GGACCUCCGCAUACGAAGATT against Slc12a5 | inactive: 2.44
CCUGGAAUGUAUUUGUUAUTT against 6330571D19Rik | inactive: 0.234
GCCGCUUAAGAGGGAUUAUTT against Mrpl15 | inactive: -2.21
GCUUUUACACUAAUCUAGCTT against Senp8 | inactive: -0.138
GGAAAAAUGUGGACUUCUUTT against Bhmt2 | inactive: -0.709
GGUCAUUCCCAAAAGCAAGTT against Erp29 | inactive: -0.821

Sequence | z-score
GGACAUUGCAUUGCUCAUGTT against Sec1 | inactive: -0.065
CCAACUGUUUGAGCUCUAUTT against BC049806 | inactive: -1.36
GGAGUUUGCCGGAAGACUCTT against Ntf3 | inactive: 1.85
GGUUCAGAAUUUAACCUUATT against Phc3 | inactive: -0.98
GGACUCACAGUUAAAAGUATT against Gtse1 | inactive: -0.688
GGAAGUGGAAUAUGUCACCTT against F730004D16Rik | inactive: -0.885
GGAAAGAAACUUUACUGAGTT against Olfr1437 | inactive: -0.284
GGCUGACACACUUCUACAUTT against D630003M21 | inactive: -1.1
GCCAGUGUCUUAAAAGUUUTT against C030046M14Rik | inactive: -0.715
CCUAGUGGCUAUACAAAUATT against Rgn | inactive: 0.187
GAAGAAAUGAAGACACAAGTT against 1810007E14Rik | inactive: 0.801
GGCAAGAAGUAUUUCCAUGTT against Fcrl3 | inactive: 1.09
GCUGAUAACCUGAUCAACGTT against Nars | inactive: -1.09
GGGAGUAUUACUCUAUUCUTT against BC043098 | inactive: -0.679
GGAAUGUGAGCUCAGAUGGTT against Arvcf | inactive: 0.0911
GCAGAUUCCUAUUAAAUGGTT against Fert2 | inactive: 0.971
GGGUUUAAUCAUGAUAGAATT against E130014J05Rik | active: 3.95
GCCCACGUCCUGGUUUAAUTT against 4632404H12Rik | inactive: -0.461
GCAAAGUCUAAACUUAGUCTT against Fchsd2 | inactive: -0.155
GCUCAACUUUCGAAUGAACTT against 1810057C19Rik | inactive: 0.0652
GGUGGUUGUCAUGACAGUCTT against Tcerg1l | inactive: -1.25
GGAACAGGUUCAUUCAUUGTT against Nup160 | inactive: -2.52
GGCUUAUGAGAACUUGGUGTT against Amot | inactive: -0.129
GGAAAUAAAGUGAAUGAGGTT against Gtpbp4 | inactive: 0.762
GGAGGACUAUAACUAAGAGTT against Ifitm5 | inactive: -0.69
GGUUCAACAAAACAGGCUUTT against 0610012A11Rik | inactive: -2.01

Quoted from the listing:
z-score, GGUCAUUCCCAAAAGCAAGTT against Erp29 is entered as inactive: -0.821
z-score, CCAACUGUUUGAGCUCUAUTT against BC049806 is entered as inactive: -1.36

(list continues)

Sequence | z-score
GCUGUCUCGUCAUUUAAGATT against 4933427L07Rik | inactive: -0.157
GGAAUGAAGACAAUUGUACTT against Rnf36 | inactive: -0.483
GGAGGAGUGAGUCCUGAGATT against Ifna13 | inactive: -0.911
GGCCUCAGAAAAGGAUCGATT against Olfr1500 | inactive: 0.598
GGGUGAAGGUGAAUAUUUATT against Esm1 | inactive: 0.508
GGUGAAGUUAAAAUGAACUTT against Cul2 | inactive: -0.68
GGCUUAACAGAGAAACACCTT against D430025H09Rik | inactive: -0.922
GCUAGGUACUGGGUUUUGCTT against Adora2b | inactive: 0.227
GGUCCCAGCAUGUUUACGUTT against Slc2a12 | inactive: -0.398
GGAAAGUGAUGUCACAAAATT against G3bp | inactive: -0.546
GAUGAGAGACAAAUUCCCATT against Il11 | inactive: 0.313
GGAUUAAAUGGUGGUGGAGTT against Dnajb6 | inactive: -0.598
GGAGCGAUACCACAGUUUATT against Rab5b | inactive: -0.673
GGCCAAGAAGACAAGAAAATT against Ddx54 | inactive: -2.16
GCCCUGAGGAAGGUACUAATT against Olfr479 | inactive: -0.614
CGUGAAGCAAGCCUUACCCTT against E030024M05Rik | inactive: 0.871
GGCGAUCCACAGGAACUCUTT against Tiam1 | inactive: 0.0217
GGUCUUCUUAGCUUUUUUUTT against E130309F12Rik | inactive: -0.732
GCUACGAGCAGAUGAUGGATT against 2410030K01Rik | inactive: -0.686
GGAAAUCUAAUGCACUUACTT against Gsdm3 | inactive: -1.15
GGCACCAAGCUCGAUGAUGTT against Sh3gl2 | inactive: 2.76
UGAUAUCGGAACAGAGAUGTT against Tbx15 | inactive: -0.175
GCCUGUAAAAACCUUUUCCTT against AW544865 | inactive: -0.628
GCCCGAGACCAUGGUUUGUTT against Zfyve21 | inactive: -1.01
GGCCUACCAUUUCUUUAUATT against Wdr35 | inactive: 0.141
GGGAUGUGAGGGAAUUAACTT against B4galt3 | inactive: 0.824

Sequence | z-score
GCUCUCACCUUCAUUUGAATT against 0610009B10Rik | inactive: -0.518
GGCACUCAAAUUCUACACCTT against Wasf2 | inactive: 0.0365
CCUCCCUGUCUAUUGUGCUTT against Slc35a2 | inactive: -0.252
GCCUAUUUGACGUGCAGAGTT against LOC230872 | inactive: -3.07
GGAAAUCAAGAAGCAGAUCTT against Epb4.1l1 | inactive: -1.57
GGAUCCAGAAGAGCAUCUCTT against Sap30 | inactive: -0.235
GCUUAUUUUCGAUACAUGGTT against Ddx42 | inactive: -0.233
GGUAAUACAACUGAGAACUTT against Zfp2 | inactive: 0.64
CCCUCGUCUGAAAUGGAAATT against AK129375 | inactive: 0.0914
GGGACAACAUCCCGUCAUATT against BB114266 | inactive: 0.433
GCACCAUUAAGGUUGCCAATT against Nudt11 | inactive: 1.58
GGGAACCUUGCUUUUUACATT against Olfr1141 | inactive: -1.02
GCUGGUAAAGGUUACGAAGTT against Crk | inactive: -0.134
GGAACGCAAGAACAGAAUGTT against Rps24 | inactive: -3.31
GCUGGAUCCAUACAAUUUGTT against Gdi3 | inactive: -0.283
GGACGCAAGUACAAAUUUATT against Tnxb | inactive: 0.84
GCACAUAUCGUGUCUCAAATT against 5033414D02Rik | inactive: 1.84
GGGUAAGUAUUGAACUCAUTT against Slc10a1 | inactive: -0.137
GGAAGAAGAAAGUGUUAAATT against Ythdf2 | inactive: 0.609
GGCUCUGGCAGAAAUGGAUTT against Pex26 | inactive: 0.663
GGAUGAUCAAGCAGAGUUUTT against Dctn2 | inactive: -1.62
GGAGGUGUUCAAAGACAACTT against Traf5 | inactive: -0.073
GCUGCCUCUCACCAAGUAUTT against Creb3l3 | inactive: -2.67
GGGAAUCUAUUGAUGGGAUTT against Sardh | inactive: -1.14
GCAUUCAGGACCUGUGGCUTT against Olfr890 | inactive: -0.854
GGAUGCUGAUGGAUUCUCUTT against Caskin2 | inactive: 0.209

An excerpt of these results, comma-delimited:
Sequence,z-score
GCAAUGGAAAAAUCCAGUUTT against Ecg2,inactive: -1.81
GGCUGACACACUUCUACAUTT against D630003M21,inactive: -1.1
GGCAAGAAGUAUUUCCAUGTT against Fcrl3,inactive: 1.09
GCUGAUAACCUGAUCAACGTT against Nars,inactive: -1.09
GGAAAGUGAUGUCACAAAATT against G3bp,inactive: -0.546
GGACGCAAGUACAAAUUUATT against Tnxb,inactive: 0.84
GGAGGUGUUCAAAGACAACTT against Traf5,inactive: -0.073
